# According to article PMC12670160, “A drug-repurposing screen of FDA- and EMA-approved drugs identifies two NF-κB inhibitors active against eumycetoma” (Journal of Antimicrobial Chemotherapy, 2025):
# Structures can show the parent of a compound that is named as a salt. Hit rate of the full screen: of about 5,300 compounds, about 130 (2.5%) showed an effect of 50% or more. The list shows a part of the results. Peptide text beside a SMILES is read from it.
# Test system: M. mycetomatis strain mm55
# Details: primary screen, metabolic activity vs growth control; 96 h, 2 µM; inhibitor
row,SMILES,% viability
1,"CCOC(=O)C1=CCCC[C@H]1S(=O)(=O)Nc1ccc(F)cc1Cl [ONC0002465, resatorvid]",53.89%
2,"CCCN[C@@H]1CCc2c(OC)cccc2[C@@H]1C [ONC0003107, aj76]",71.21%
3,"C/C=C(\C)C(=O)O[C@H]1[C@H](OC(C)=O)[C@@]2(CO)C(CC1(C)C)C1=CCC3[C@@]4(C)CCC(O[C@@H]5O[C@H](C(=O)O)[C@@H](O[C@@H]6O[C@H](CO)[C@@H](O)[C@H](O)[C@H]6O)[C@H](O)[C@H]5O[C@@H]5O[C@H](CO)[C@@H](O)[C@H](O)[C@H]5O)[C@](C)(CO)C4CC[C@@]3(C)[C@]1(C)C[C@H]2O (some centres unmarked) [ONC0002310, escin]",67.54%
4,"Cc1ccc(NC2=CC(=O)c3sc(C)nc3C2=O)cc1 [ONC0003545, ryuvidine]",94.75%
5,"COc1ccc2[nH]c([S+]([O-])Cc3ncc(C)c(OC)c3C)nc2c1 (centres unmarked) [ONC0004073, omeprazole]",121.3%
6,"CCS(=O)(=O)Nc1ccc2c(c1)/C(=C(/Nc1ccc(CN3CCCCC3)cc1)c1ccccc1)C(=O)N2 [ONC0000287, hesperadin]",53.58%
7,"CC1(C)OC[C@H](NC(=O)Nc2ccc(Br)cc2Br)[C@H](c2ccccc2)O1 [ONC0000012, jnj10397049]",107.6%
8,"O=C(NC(Cc1c[nH]c2ccccc12)C(=O)O)c1ccc(Cl)cc1 (centres unmarked) [ONC0003778, benzotript]",95.54%
9,"OC(CCN1CCCCC1)(c1ccccc1)C1CCCCC1 (centres unmarked) [ONC0003172, trihexyphenidyl hydrochloride]",87.25%
10,"Cc1ccc(O)c(/N=N/c2ccccc2)n1 [ONC0000857, sib1757]",82.32%
11,"NC(Cc1ccc(O)cc1)C(=O)O (centres unmarked) [ONC0003385, dltyrosine]",63.01%
12,"N=C(N)N/N=C/c1c(Cl)cccc1Cl [ONC0000441, guanabenz acetate]",88%
13,"N#Cc1cc(F)cc(-c2nc(-c3ccc(F)cn3)no2)c1 [ONC0001408, azd9272]",138.3%
14,"N[C@@H](Cc1ccc(O)cc1)C(=O)NCC(=O)NCC(=O)O [ONC0003693, ltyrosylglycylglycine] (H-Tyr-Gly-Gly-OH)",81.53%
15,"Cc1ccc2c(Cl)cc(Cl)c(O)c2n1 [ONC0003292, chlorquinaldol]",83.81%
16,"OC[C@H]1NC[C@@H](O)[C@@H](O)[C@@H]1O [ONC0001492, 1deoxymannojirimycin]",81.25%
17,"COc1ccc(/C=C2\CCCN=C2c2cccnc2)c(OC)c1 [ONC0001889, gts21]",72.7%
18,"CCCc1nc(C(C)(C)O)c(C(=O)O)n1Cc1ccc(-c2ccccc2-c2nnn[nH]2)cc1 [ONC0001256, olmesartan]",65.5%
19,"COc1ccc(C[C@H](C)NC[C@@H](O)c2ccc(O)c(NC=O)c2)cc1 [ONC0001548, formoterol]",81.88%
20,"N[C@@H](CC(=O)NO)C(=O)O [ONC0005577, lasparaginenhydroxy]",46.79%
21,"COc1nc(C)nc(Cl)c1N=C1NCCN1 [ONC0003528, moxonidine]",108%

row,SMILES,% viability
1,"CN(C)CCOC(=O)COc1ccc(Cl)cc1 [ONC0003119, meclofenoxate hydrochloride]",70.61%
2,"Brc1c(NC2=NCCN2)ccc2nccnc12 [ONC0003077, brimonidine]",64.39%
3,CC/C=C\C/C=C\C/C=C/C/C=C\C/C=C\C/C=C\CCC(=O)OCC [ONC0002811],151.6%
4,"C[C@H](Oc1cc(-c2cnn(C3CCNCC3)c2)cnc1N)c1c(Cl)ccc(F)c1Cl [ONC0005182, scrizotinib]",102.4%
5,"CC[C@H]1[C@@H](O)[C@@H]2[C@H](CC[C@]3(C)[C@@H]([C@H](C)CCOS(=O)(=O)O)CC[C@@H]23)[C@@]2(C)CC[C@@H](O)C[C@@H]12 [ONC0001140, int767]",81.25%
6,"COC(=O)C(N)CS (centres unmarked) [ONC0003811, mecysteine hydrochloride]",98.34%
7,"CC(N)C12CC3CC(CC(C3)C1)C2 (centres unmarked) [ONC0003913, rimantadine hydrochloride]",69.15%
8,"CCOC(=O)c1c(C)n(C)c2ccc(O)cc12 [ONC0004780, mecarbinate]",73.77%
9,"Nc1cc(-c2ccncc2)c[nH]c1=O [ONC0002877, inamrinone]",98.79%
10,"c1ccc2c(c1)CCCc1cc(NCCN3CCOCC3)nnc1-2 [ONC0002371, sr95639a]",88.18%
11,"CCC(=O)NC[C@H](Cc1ccc(OCCc2nc(-c3ccccc3)oc2C)cc1)N/C(C)=C\C(=O)c1ccc(C(F)(F)F)cc1 [ONC0001652, gw6471]",62.72%
12,"Fc1cc(-c2cccc3ncc(-c4cnn(C5CCNCC5)c4)nc23)cc(F)c1CN1CCOCC1 [ONC0005097, nvpbsk805 2hcl]",105.3%
13,"C=C[C@@H]1C[C@]1(NC(=O)[C@@H]1C[C@@H](Oc2ncc(OC)c3ccc(Cl)cc23)CN1C(=O)[C@@H](NC(=O)OC(C)(C)C)C(C)(C)C)C(=O)NS(=O)(=O)C1CC1 [ONC0000817, asunaprevir]",83.06%
14,"Nc1nncs1 [ONC0005612, aminothiadiazole]",142.1%
15,"CN(CCOc1ccc(CC2SC(=O)NC2=O)cc1)c1ccccn1 (centres unmarked) [ONC0004226, rosiglitazone maleate]",84.91%
16,"c1ccc2nc(C3=NCCN3)cnc2c1 [ONC0003136, bu239]",58.56%
17,"CN(C)CC[C@@H](c1ccc(Cl)cc1)c1ccccn1 [ONC0000351, dexchlorpheniramine maleate]",73.73%
18,"CC(=O)OCC(=O)[C@@]1(O)CCC2C3CCC4=CC(=O)CC[C@]4(C)C3[C@@H](O)C[C@@]21C (some centres unmarked) [ONC0000452, hydrocortisone acetate]",83.81%
19,"C=C1CCC2(O)C3Cc4ccc(O)c5c4C2(CCN3CC2CC2)C1O5 (centres unmarked) [ONC0004788, nalmefene hydrochloride]",133.8%
20,"O=C(NCC(=O)N1CCCC1)Nc1ccc2cnccc2c1 [ONC0002723, sgc707]",66.38%
21,"CCN(c1cc(-c2ccc(CN3CCOCC3)cc2)cc(C(=O)NCc2c(C)cc(C)[nH]c2=O)c1C)C1CCOCC1 [ONC0004373, tazemetostat epz6438]",81.86%

# Sorted by length of the SMILES (falling): some entries from above
row,SMILES,% viability
11,"CCC(=O)NC[C@H](Cc1ccc(OCCc2nc(-c3ccccc3)oc2C)cc1)N/C(C)=C\C(=O)c1ccc(C(F)(F)F)cc1 [ONC0001652, gw6471]",62.72%
20,"O=C(NCC(=O)N1CCCC1)Nc1ccc2cnccc2c1 [ONC0002723, sgc707]",66.38%
1,"CN(C)CCOC(=O)COc1ccc(Cl)cc1 [ONC0003119, meclofenoxate hydrochloride]",70.61%
14,"Nc1nncs1 [ONC0005612, aminothiadiazole]",142.1%

# Next part.

row,SMILES,% viability
1,"NC(N)=O [ONC0003184, urea]",95.67%
2,"Cc1cccc(C)c1NC(=O)CN1CCCCCC1 [ONC0002330, pincainide]",57.17%
3,"Cn1c([N+](=O)[O-])cnc1COC(N)=O [ONC0000624, ronidazole]",136.6%
4,"COc1ccc2c(c1)c(CC(=O)OCC(C(=O)O)c1ccccc1)c(C)n2C(=O)c1ccc(Cl)cc1 (centres unmarked) [ONC0005419, tropesin]",78%
5,"O=C1c2ccccc2S(=O)(=O)N1CCCCN1CCN(c2ncccn2)CC1 [ONC0004443, ipsapirone]",111.9%
6,"CCn1c(O)nnc1-c1ccc(Cl)cc1 [ONC0004218, 54chlorophenyl4ethyl24dihydro3h124triazol3one]",123.6%
7,"O=C(O)CC1CC(c2ccccc2)=NO1 (centres unmarked) [ONC0004704, vgx1027]",119.9%
8,"COc1ccc(C2Oc3c(CC=C(C)C)c(O)cc(O)c3C(=O)C2=O)cc1 (centres unmarked) [ONC0005395, 57dihydroxy24methoxyphenyl83methyl2buten1yl2hchromene34dione]",83.8%
9,"O=C(O)CCc1cc(C(=O)c2ccc(OC3CCCC3)cc2O)ccc1OCc1ccc2c(O)noc2c1 [ONC0002038, t5224]",91.59%
10,"O=C(O)c1cc(O)c2ccc(Cl)cc2n1 [ONC0000108, 7chlorokynurenicacid]",110.4%
11,"CCCCC1OC(=O)c2ccccc21 (centres unmarked) [ONC0002284, butylphthalide]",103.4%
12,"O=C(O)CC(O)(CC(=O)O)C(=O)O.[Li].[Li].[Li] [ONC0004255, lithium citrate hydrate]",60.67%
13,"OC[C@H]1O[C@@H](O[C@@H]2[C@@H](CO)OC(O)(CO)[C@H]2O)[C@H](O)[C@@H](O)[C@H]1O (mixture of isomers) [ONC0000410, lactulose]",70.45%
14,"CCCN1CCO[C@@H]2c3cc(O)ccc3OC[C@H]21 [ONC0000309, pd128907]",42.57%
15,"FC(F)(F)Oc1ccc2[nH]c(-c3ccc(OCCOCCOc4ccc(-c5nc6cc(OC(F)(F)F)ccc6[nH]5)nc4)cn3)nc2c1 [ONC0000980, ai1049]",83.7%
16,"CC(=O)OCC(=O)[C@@]12OC(C)(C)O[C@@H]1CC1C3C[C@H](F)C4=CC(=O)C=C[C@]4(C)[C@@]3(F)[C@@H](O)C[C@@]12C (some centres unmarked) [ONC0000518, fluocinonide]",69.32%
17,"COc1ccc(-c2cc(C(F)F)nn2-c2ccc(S(N)(=O)=O)cc2)cc1F [ONC0003972, deracoxib]",81.02%
18,"N[C@@H](C(=O)N[C@@H]1C(=O)N2C(C(=O)O)=C(Cl)CS[C@H]12)c1ccccc1 [ONC0003819, cefaclor]",72.17%
19,"CCCCCCCCCCCCCCCC[n+]1ccccc1 [ONC0000741, cetylpyridinium chloride]",69.27%
20,"CN1CCN(c2cccc3[nH]c(=O)oc23)CC1 [ONC0001222, pardoprunox hydrochloride]",113%

# Two of the compounds above, with tabs:
row	SMILES	% viability
8	COc1ccc(C2Oc3c(CC=C(C)C)c(O)cc(O)c3C(=O)C2=O)cc1 (centres unmarked) [ONC0005395, 57dihydroxy24methoxyphenyl83methyl2buten1yl2hchromene34dione]	83.8%
9	O=C(O)CCc1cc(C(=O)c2ccc(OC3CCCC3)cc2O)ccc1OCc1ccc2c(O)noc2c1 [ONC0002038, t5224]	91.59%
